According to patent US20240101675A1:
These are yes or no findings as the source states them, for the method shown.

Molecular target: IL-17
Assay: specificity ELISA, ligand coated

B1: BDG33.023 (antibody, human IgG1, V domains shown)
VH: QMQLVESGGGVVQPGRSLRLSCAASGFAFRTYGMHWVRQAPGKGLEWVAVIWYDGSNTHYADSVKGRFTITRDNSKNTLNLQMNSLRAEDTAVYYCARAPQWYLSAEAFDLWGQGTMVTVSS
VL: SYVLTQPPSVSVAPGQTARITCGGNLIGSKLVHWYQQKPGQAPVLVVYDDSDRPSRIPERFSGSNSGNTATLTISRVEAGDEADYYCQVWDHSSDHVVFGGGTKLTVL
**Q.** With B1 as the binder, how does the binding read?
**A.** no binding (tested: 100 nM IgG)
